{
  "source": "patent US20140005164A1",
  "about": "“WNT PATHWAY ANTAGONISTS” (Siena Biotech S.p.A., priority 2011, published 2014)",
  "note": "Some entries share one result that the patent states for a list of compounds.",
  "data": [
    {"tested_on": "DBTRG-05MG glioblastoma cell line", "experiment": "Renilla read out (TA-Renilla, Wnt-independent internal control for cell number and toxicity)", "type": "cell-based", "conditions": "TA-Renilla luciferase, 24 hours after compound addition", "values": [
      {"smiles": "COCCN(C)c1ncc2c(n1)n(C[C@H]1CC[C@H](C(=O)Nc3ccncc3)CC1)c(=O)n2C", "note": "[Example 8, Trans-4-{2-[(2-Methoxy-ethyl)-methyl-amino]-7-methyl-8-oxo-7,8-dihydro-purin-9-ylmethyl}-cyclohexanecarboxylic acid pyridine-4-ylamide]", "effect in the renilla read out": "negligible effect"},
      {"smiles": "CN(C)CCN(C)c1ccc2c(n1)n(C[C@H]1CC[C@H](C(=O)Nc3ccncc3)CC1)c(=O)n2C", "note": "[Example 5, Trans-4-{5-[(2-Dimethylamino-ethyl)-methyl-amino]-1-methyl-2-oxo-1,2-dihydro-imidazo[4,5-b]pyridin-3-ylmethyl}-cyclohexanecarboxylic acid pyridin-4-ylamide]", "effect in the renilla read out": "negligible effect"},
      {"smiles": "COc1cccc(COc2ccc3c(n2)n(C[C@H]2CC[C@H](C(=O)Nc4ccncc4)CC2)c(=O)n3C)c1", "note": "[Example 10, Trans-4-[5-(3-Methoxy-benzyloxy)-1-methyl-2-oxo-1,2-dihydro-imidazo[4,5-b]pyridin-3-ylmethyl]-cyclohexane carboxylic acid pyridin-4-ylamide]", "effect in the renilla read out": "negligible effect"},
      {"smiles": "COc1ccc2c(c1)n(C[C@H]1CC[C@H](C(=O)N3CCC4(CC3)OCCO4)CC1)c(=O)n2C", "note": "[Example 86]", "effect in the renilla read out": "negligible effect"}
    ]}
  ]
}
